Results as given in patent US11970498B2, “CDK2 inhibitors” (BLUEPRINT MEDICINES CORPORATION, priority 2021, dated 2024).
The match of structure and compound is tentative.

Protein sequences, listed by entry. Tags and fused reporters are not part of them.
UniProt P06493, whole entry: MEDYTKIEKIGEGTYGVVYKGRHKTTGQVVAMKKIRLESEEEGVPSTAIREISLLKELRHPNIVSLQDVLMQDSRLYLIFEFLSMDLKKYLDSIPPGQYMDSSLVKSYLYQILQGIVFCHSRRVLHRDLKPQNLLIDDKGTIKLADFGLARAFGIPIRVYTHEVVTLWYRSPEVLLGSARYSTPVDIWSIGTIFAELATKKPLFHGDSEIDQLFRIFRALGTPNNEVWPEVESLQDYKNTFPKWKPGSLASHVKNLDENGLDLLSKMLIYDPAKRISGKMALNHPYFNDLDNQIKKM
UniProt P14635, whole entry partner: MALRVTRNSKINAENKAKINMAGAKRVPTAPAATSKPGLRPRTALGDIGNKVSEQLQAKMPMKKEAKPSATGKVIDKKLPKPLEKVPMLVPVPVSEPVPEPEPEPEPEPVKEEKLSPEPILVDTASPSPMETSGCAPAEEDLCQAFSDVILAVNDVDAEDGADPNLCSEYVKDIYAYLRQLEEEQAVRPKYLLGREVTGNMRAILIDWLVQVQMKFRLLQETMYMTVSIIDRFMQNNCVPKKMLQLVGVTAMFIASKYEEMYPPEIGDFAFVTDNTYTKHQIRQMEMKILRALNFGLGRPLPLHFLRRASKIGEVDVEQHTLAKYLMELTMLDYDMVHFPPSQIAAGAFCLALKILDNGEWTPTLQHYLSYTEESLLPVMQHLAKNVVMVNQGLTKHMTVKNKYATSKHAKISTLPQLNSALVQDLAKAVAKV

Key:
CDK1/Cyclin B1, GST-tag = CDK1/Cyclin B1, GST-tag (Homo sapiens, UniProt P06493); assay: CDK1/Cyclin B1 biochemical phosphorylation assay (Caliper mobility shift); conditions: read-out: CDK1/cyclin B1 IC50; apparent IC50; 1.0 mM ATP or ATP Km; 1.5 nM enzyme; 25° C.
Method: (§1) Inhibitory effects of the compounds of the disclosure were measured in biochemical assays that measure the enzymatic phosphorylation activity of CDK enzyme in complex of Cyclin proteins phosphorylates 7.5 micromolar fluorescently labelled peptide substrate, 5-FAM-QSPKKG-CONH2, (FL-Peptide 18, Perkin Elmer, 760362) in the presence of adenosine-5′-triphosphate (ATP) and varying concentrations of the test compound in 100 mM 2-[4-(2-hydroxyethyl)piperazin-1-yl] ethanesulfonic acid (HEPES), pH 7.5, 10 mM MgCl2, 0.015% Brij-35, 1 mM dithiothreitol (DTT), 1.0% dimethylsulfoxide (DMSO). Assays were performed at 1.0 mM ATP or at ATP Km of the CDK enzymes in complex with Cyclin proteins. Reactions proceeded until between 10% to 20% total peptides were phosphorylated at room temperature (25° C.) and were terminated with 35 mM 2,2′,2″,2′″-(ethane-1,2-diyldinitrilo)tetraacetic acid (EDTA). Product was detected using the Caliper mobility shift detection method where the phosphorylated peptide (product) and substrate were electrophoretically separated and measured. Percent activity was plotted against log concentration of compound and points to generate an apparent IC50. The following CDK enzymes in complex with different cyclin proteins were used in these assays: • CDK1/Cyclin B1, GST-tag (BPS, 40454), 1.5 nM used in the assay • CDK2/Cyclin E (Eurofins, 14-475), 1.25 nM used in the assays […]

CDK2/Cyclin E = CDK2/Cyclin E (Homo sapiens, UniProt P24941); assay: CDK2/Cyclin E biochemical phosphorylation assay (Caliper mobility shift); conditions: read-out: CDK2/cyclin E1 IC50; apparent IC50; 1.0 mM ATP or ATP Km; 1.25 nM enzyme; 25° C.
Method: as §1

SMILES: FC(F)Oc1cc(Nc2cnc3cnn(C[C@@H]4C[C@@H]4F)c3n2)n[nH]1 (relative stereo)
- IC50 (CDK1/Cyclin B1, GST-tag): 100 to 500 nM
- IC50 (CDK2/Cyclin E): < 10 nM
